Assay results as given in PubChem BioAssay AID2685 (National Center for Advancing Translational Sciences (NCATS), 2010).
The list shows a part of the results. The main result of the screen is listed elsewhere. These columns were measured beside it and carry no call. Most of these compounds were active or inconclusive in the main read-out, so they are no random draw. Words in brackets tell the shape of the fitted curve; partial curves, single points and poor fits give uncertain potencies.

Test: qHTS Assay for Lipid Storage Modulators in Drosophila S3 Cells;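 on cell number change: cells counted by Cell Tracker Red CMTPX staining in the red channel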
Settings: BODIPY lipid droplet fluorescence, 18-24 h; for cell number change: measured here: cell count max response, cells fed with added oleic acid
In short: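 Drosophila S3 cells got compounds at several concentrations plus oleic acid (400 uM solution). Laser-scanning cytometry with 488 nm excitation read lipid droplets at 500-530 nm and cells at 575-640 nm. Percent activity was relative to 20 uM Triacsin C.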

[1] = measured here: cell number channel AC50, cells fed with added oleic acid
[2] = measured here: lipid fluorescence (Fed channel) AC50, cells fed with added oleic acid

Row | Compound | cell number change [%] | AC50 [1] | AC50 [2]
1 | CN(C)S(=O)(=O)c1cc(C(=O)NCc2ccccc2)c(Cl)cc1Cl | 107 | 4.11 µM [falling, single point] | 3.26 µM [falling, single point]
2 | Cc1cc(=O)[nH]c2ccc(S(=O)(=O)Nc3ccccc3)cc12 |  |  | 29.1 µM [rising, single point]
3 | Cc1onc(-c2ccccc2)c1C(=O)OCC(=O)Nc1ccc(Cl)cc1 | -8.53 |  | 6.51 µM [rising, single point]
4 | COc1cccc(NC(=O)Cn2c(=O)n(CCC(=O)NCc3ccco3)c(=O)c3ccccc32)c1 | -31.1 | 29.1 µM [falling, single point] | 
5 | COc1ccc(NC(=O)CCCc2nnc3n(C)c(=O)c4sccc4n23)cc1 | 13.8 |  | 2.59 µM [falling, full curve]
6 | O=S(=O)(c1cccc2cccnc12)N1CCCCC1 | -2.35 |  | 20.6 µM [rising, single point]
7 | Cc1cc(C)nc(SCC(=O)N2CCOCC2)n1 | 30 |  | 6.51 µM [falling, single point]
8 | O=C(c1cc2ccccc2o1)N1CCCC1 | 16.8 |  | 14.6 µM [rising, partial curve, poor fit]
9 | O=C(COc1coc(CN2CCc3ccccc3C2)cc1=O)Nc1ccccc1F | -50 | 8.2 µM [falling, partial curve, poor fit] | 0.116 µM [rising, full curve, poor fit]
10 | CCOc1ccc(/C=C2\SC(=S)N(Nc3ccccc3)C2=O)cc1OC | 9.81 |  | 29.1 µM [rising, single point]
11 | O=C(CCn1cccc1)N1CCc2ccccc21 | 25.7 | 5.8 µM [falling, partial curve] | 29.1 µM [falling, single point]
12 | CCN1C(=O)[C@H]2[C@@H](c3ccc(-c4ccccc4)cc3)N[C@@](C)(C(=O)OC)[C@H]2C1=O | -1.52 |  | 29.1 µM [falling, single point]
13 | COc1ccc(NC(=O)CSc2nc3c(c(=O)n(C)c(=O)n3C)n2C)c(OC)c1 | 8.7 |  | 
14 | Cn1sc(NC(=O)c2cccc(Cl)c2)nc1=O | 33.1 |  | 
15 | CCOC(=O)c1ccc(NC(=O)N2CC(C)OC(C)C2)cc1 (stereo not drawn) | -5.43 |  | 0.146 µM [rising, single point]
16 | O=C(CSc1nc2nn(-c3ccccc3)c(=O)c-2c2n1CCCCC2)NCCc1ccccc1 |  |  | 5.8 µM [rising, partial curve, poor fit]
17 | O=S(=O)(NC1CCN(S(=O)(=O)c2ccc3c(c2)OCCO3)CC1)c1c(F)cccc1F | 26.6 |  | 7.31 µM [rising, partial curve]
18 | CC(C)c1nnc(NC(=O)CCC(=O)Nc2ccc(F)cc2)s1 | 11.8 |  | 25.9 µM [falling, partial curve, poor fit]
19 | O=C1NC(=S)N/C1=C/c1cccc([N+](=O)[O-])c1 |  | 2.59 µM [rising, single point] | 5.17 µM [rising, single point]

Row | Compound | cell number change [%] | AC50 [1] | AC50 [2]
20 | O=C(NCc1cc([N+](=O)[O-])ccc1O)c1cccnc1Sc1ccccc1 | 13.5 |  | 
21 | CC1=C(C(=O)N2CCOCC2)C(c2c(F)cccc2F)NC(=O)N1 (stereo not drawn) | -43.1 |  | 
22 | CN1CC(=O)N(CCOc2ccccc2)C1=O | -25.4 | 3.66 µM [falling, full curve, poor fit] | 29.1 µM [falling, single point]
23 | Cc1ccc(C(=O)Nc2ccc(F)cc2F)o1 | 59.6 | 20.6 µM [rising, single point] | 
24 | Cc1cc2c(cc1C)-c1nnc(-c3ccc4ccccc4n3)n1C(C)(C)C2 | 57.5 | 25.9 µM [rising, single point] | 20.6 µM [rising, partial curve]
25 | CS(=O)c1ccccc1-c1nc(-c2ccc(Cl)cc2)no1 (stereo not drawn) | 22.4 |  | 
26 | COC(=O)c1ccc(CSc2nc3scc(-c4cccs4)c3c(=O)[nH]2)o1 | -20.6 |  | 
27 | CN(C)C(=S)NC(=O)c1cccc(Cl)c1 | 38.4 | 4.61 µM [rising, full curve, poor fit] | 6.51 µM [rising, single point]
28 | COc1ccccc1CNC(=O)C(C)n1nc(C)c2c(C)n(-c3ccccc3)nc2c1=O (stereo not drawn) |  |  | 6.51 µM [falling, partial curve]
29 | O=C(/C(=C/c1cccnc1)n1ccnc1)c1ccc(Cl)cc1Cl | -38.5 | 5.17 µM [falling, partial curve, poor fit] | 
30 | Cc1occc1C(=O)NCc1ccco1 |  | 1.84 µM [rising, single point] | 29.1 µM [falling, single point]
31 | COc1ccccc1-c1oc2ccccc2c1C#CCCO | -39.4 | 4.11 µM [falling, single point] | 
32 | N#Cc1ccccc1OCC(=O)NNC(=O)c1ccncc1 | 17.9 |  | 32.6 µM [rising, single point]
33 | C=CCn1c(=NC(=O)c2cc(Cl)sc2Cl)sc2cc(S(N)(=O)=O)ccc21 | -19.3 |  | 5.17 µM [falling, single point]
34 | Cc1c(C)c2c(OCC(=O)NCc3cccnc3)cc3c(c2oc1=O)CCC(C)(C)O3 | 40.8 | 7.31 µM [rising, partial curve, poor fit] | 
35 | O=C(NCc1ccc2c(c1)OCO2)C1CCN(S(=O)(=O)c2cccs2)CC1 | -18.5 |  | 18.4 µM [falling, single point]
36 | Cc1ccc(-n2ncc3c(=O)n(CC(=O)N4CCN(c5ccccc5)CC4)cnc32)cc1 | 15.1 | 0.082 µM [rising, partial curve, poor fit] | 0.326 µM [rising, full curve, poor fit]
37 | CCC(C)(C)c1nnc(NC(=O)C2CCN(C(=O)c3ccco3)CC2)s1 | -5.13 |  | 
38 | CC(C)(C)c1ccc(-c2noc(CCC(=O)Nc3cccnc3)n2)cc1 | -21 | 0.00411 µM [falling, full curve, poor fit] | 

A different layout for some results above.
Row,Compound,cell number change [%],AC50 [1],AC50 [2]
29,O=C(/C(=C/c1cccnc1)n1ccnc1)c1ccc(Cl)cc1Cl,-38.5,"5.17 µM [falling, partial curve, poor fit]",
30,Cc1occc1C(=O)NCc1ccco1,,"1.84 µM [rising, single point]","29.1 µM [falling, single point]"
